Measured values taken from US8673882B2, “Inhibitors of autotaxin” (University of Tennessee Research Foundation, priority 2011, dated 2014).
Some of these results come from one statement about several compounds together.

Tested on: MM1 hepatocarcinoma cells
Test: Invasion of mesothelial cell monolayer by MM1 cells
Format: cell-based, rat
Details: LPA and likely ATX-dependent invasion
Description: Cancer metastasis is a complex process that cannon be accurately modeled in vitro. Models that utilize cellular monolayers for the invasion of carcinoma cell come the closest to the situation in vivo. Two different cell monolayers, mouse mesothelium and human vascular endothelium were used to examine the role of ATX in the invasion of MM1 hepatocarcinoma cells and the reduction of such invasion by the chemical compounds of the present application. The mesothelial monolayer is an accepted model for invasion of body cavities lined by serous cells whereas, the HUVEC monolayer is considered to be an in vitro model of hematogenous invasion of carcinomas.
Highly invasive MM1 cells originally isolated from the AH130 rat hepatoma cells were utilized in these studies. […]
Invasion of MM1 cells of Example 53 was determined and the effect of compounds of the present application in reducing the invasion was determined. […] The number of tumor cells that penetrated the monolayer was photographed under a NIKON TiU inverted microscope using phase-contrast and fluorescence illumination in a minimum of five non-overlapping fields at 100× magnification. The fluorescent images were overlayed on top of the phase contrast images using the Elements BR software (version 3.1x) and the invaded MM1 cells showing the characteristic flattened morphology in the plane of focus underneath the monolayer were counted. […]

## CCCCCCCCCCCCCCCc1ccc(CP(=O)(O)O)cc1 [Compound 22, 4-Pentadecylbenzylphosphonic acid]
  concentration reaching complete inhibition of invasion of the mesothelial monolayer: above 3 μM

## CCCCCCCCCCC/C=C/c1ccc2cc(CP(=O)(O)O)ccc2c1 [Compound 30b, (E)-6-Tridec-1-enyl-naphthalen-2-yl-methylphosphonic acid]
  concentration reaching complete inhibition of invasion of the mesothelial monolayer: above 3 μM
